Data published in patent US20240368566A1, “PYK2-DERIVED PEPTIDES FOR INHIBITING INVADOPODIA-MEDIATED CANCER METASTASIS” (BAR-ILAN UNIVERSITY, priority 2023, published 2024).
For part of these data: For at least one compound, name, drawing or mass did not settle the structure. Some entries share one result that the patent states for a list of compounds. Where no end group is shown, it is not given here.

Sequences of proteins named here, by UniProt entry; tags and fusion partners are left off. Residues count along the entry.
UniProt Q60598, 490-546: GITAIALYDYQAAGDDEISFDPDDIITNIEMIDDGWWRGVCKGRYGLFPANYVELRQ

Columns and labels:
MDA-MB-231 cells = assay: Barbed end formation assay; type: cell-based, human; conditions: EGF 3 min versus 0 min, at invadopodia
Method: The barbed end assay was performed using biotin-conjugated actin as described in Genna et al., 2018 (supra). In brief, 24 h before each experiment, cells were plated on fibronectin/gelatin unlabeled matrix in the presence of Pyk2-PRR or control peptides at 0.1, 1, or 5 μM concentration and allowed to attach for 8 h. Cells were starved for 16 h in the presence of the peptides and then stimulated with 2.5 nM EGF and permeabilized with a permeabilization buffer (20 mM Hepes, pH 7.5, 138 mM KCl, 4 mM MgCl2, 3 mM EGTA, 0.2 mg/ml saponin, 1 mM ATP, and 1% BSA) containing 0.4 μM biotin-conjugated muscle actin (AB07) (Cytoskeleton Inc., Denver, CO, USA) for 1 min at 37° C. Cells were fixed in 3.7% paraformaldehyde for 5 min, blocked in PBS containing 1% FBS, 1% BSA, and 3 μM un-labeled phalloidin (Molecular Probes, P3457), then labeled with FITC anti-biotin (200-092-211) (Jackson ImmunoResearch Laboratories, West Grove, PA, USA) to visualize barbed ends, and with rhodamine-phalloidin (R415) (Molecular Probes, Eugene, OR, USA) and Arp2 to identify regions of cells rich in invadopodia. The barbed end intensity at invadopodia-rich regions was quantified by measuring mgv at invadopodia-rich areas minus mgv of the background. Data were normalized to the control condition for each experiment.

cortactin SH3 domain = target: T1, cortactin SH3 domain (Mus musculus, UniProt Q60598); assay: NMR affinity determination, binding of peptides to purified cortactin-SH3; conditions: no significant/detectable affinity; projected or estimated bound
T1 construct: nucleotides1468-1641); 6xHis (N, cleaved yes); made in house; host or cells: E. coli BL21 (DE3)
Method: The DNA sequence encoding the SH3 domain of the mouse cortactin SH3 domain (GenBank ID U03184; nucleotides1468-1641) was sub-cloned into a pET-28a plasmid (Novagen, Merck) in frame with the cleavable N-terminal 6×His tag. Isotopically labeled cortactin-SH3 for heteronuclear NMR experiments was expressed in transformed E. coli BL21 cells (DE3) grown in the presence of kanamycin (50 mg/1) and chloramphenicol (34 mg/1) at 37° C. in M9 minimal medium. For ^15N (^13C) labeling the medium contained 1 g/L of ^15NH4Cl (4 g/L ^13C6-glucose), and 0.25 g/l of appropriately labeled Celtone Base Powder (Cambridge Isotope Laboratories, Andover, MA) was added. For triple-labeled ^2H,^13C,^15N—SH3, expression began in 100 ml of the above medium grown to an OD600 of 0.4-0.5 and gently centrifuged. Pellets were then resuspended in 500 ml filter-sterilized D20-based ^15N-M9 supplemented with ^2H7-^13C6-glucose (2 g/1) and DCN-Isogro (0.25 g/1) to reach a final OD600 of −0.1. […]
Purified SH3 was dialyzed against NMR sample buffer (30 mM NaPi, pH ˜6.5) and concentrated to the desired concentration in an Amicon concentration tube (3 kDa MWCO) (Merck). […] For quantitative titrations, purchased peptides were dissolved in 100-300 μl NMR sample buffer, and samples at varying (SH3:PRR2 1:0-1:6, SH3 concentration constant at 0.1 mM) ratios were prepared. Fittings were performed with 5-6 measured points. […]

Row | Sequence | increase in barbed end intensity on EGF stimulation (MDA-MB-231 cells) | Kd (cortactin SH3 domain)
1 | EFTGPPQKPPRLGAQS [Pyk2-PRR3, EFTGPPQKPPRLGAQS] | 1.3-1.8 fold | –
2 | PEPYPTPAPFPKKQRPRPS [scrambled control peptide, PEPYPTPAPFPKKQRPRPS, reference compound] | 1.3-1.8 fold | > 1000 µM
